Laboratory results: patent publication US6344180B1 (BioNebraska, Inc., priority 1999, dated 2002)
At least one peptide structure holds a part that was inferred or is arguable (an end, a ring closure or a residue).

Tested on: β-cell secretion
Assay: Part two: 2.5 nmol GLP-1, glucagon test, combined glucose+GLP-1 injection and s.c. GLP-1, peak plasma insulin and C-peptide
Assay type: in vivo, human
Settings: for Effect of hyperglycemia on the β-cell secretory response to GLP-1: part two
From the text: The present study was divided into three parts.
Part one: Six type II diabetic patients (four men and two women, mean (range), age: 56 years (48-67 years); BMI: 31.1 kg/m^2 (27-38 kg/m^2); HbA1c; 9.6% (7,0-12.5%) ) and 6 healthy subjects individually matched for sex, age and BMI (age: 56 years (51-70 years); BMI: 31.6 kg/m^2 (26-37 kg/M^2); HbA1c: 5.5% (5.2-5.8%)). […] Part three 8 type II diabetic patients (seven men and one woman, age: 55 years (49-69 years); BMI: 30.9 kg/m^2 (27-35 kg/M^2); HbA1c: 7.6% (6.3-8.6%)) and 8 healthy subjects (age: 55 years (51-64 years); BMI 31.1 kg/m^2 (25-38 kg/m^2); HbA1c: 5.4% (5.0-6.0%)) participated. Four patients were treated with diet alone while four were treated with diet and oral antidiabetics (sulphonylureas and/or biguanides). […] All type II diabetic patients were diagnosed according to the criteria of National Diabetes Data Group. […] All agreed to participate after oral and written information.
All oral antidiabetics were discontinued 72 hours before the study.
Meal test: Venous blood was drawn 15, 10 and 0 min before and 15, 30, 45, 60, 75, 90, 120, 150 and 180 minutes after ingestion of a standard breakfast meal. […] The peptide was dissolved in sterilized water containing 2% human serum albumin (Albumin Nordisk, Novo Nordisk, Bagsvaerd, Denmark, guaranteed to be free of hepatitis-B surface antigen and human immunodeficiency virus antibodies) and subjected to sterile filtration. Appropriate amounts of peptide for each experimental subject were dispensed into glass ampoules and stored frozen under sterile conditions until the day of the experiment. Part two: β-cell function was examined on 3 different days. […] Fifteen minutes later plasma glucose was elevated to 15 mmol/l by intravenous glucose (50% w/v) administration as described above.
Plasma glucose concentrations were measured during the experiments using a glucose oxidase method with a Glucose Analyzer (Yellow Springs Instrument Model 23 A, USA). Plasma insulin concentrations were measured according to Albano et al using standards of human insulin and antibody code no. 2004. The sensitivity of the assay is approximately 3 pmol/l, the intraassay coefficient of variation is 8% at 48 pmol/l. C-peptide concentrations were determined by radioimmunoassay (RIA) as described by Heding et al employing the polyclonal antibody M1230[12]. […] The detection limit is approximately 60 pmol/l, the intra-assay coefficient of variance is 5%, interassay coefficient of variation is 7.3%. […] The assay has a detection limit of 5 pmol/l. […] The detection limit is 1 pmol/l.

[1] = s.c. 1.5 nmol GLP-1/kg at glucose 15 mmol/l, healthy subjects

CC[C@H](C)[C@H](NC(=O)[C@H](Cc1ccccc1)NC(=O)[C@H](CCC(=O)O)NC(=O)[C@H](CCCCN)NC(=O)[C@H](C)NC(=O)[C@H](C)NC(=O)[C@H](CCC(N)=O)NC(=O)CNC(=O)[C@H](CCC(=O)O)NC(=O)[C@H](CC(C)C)NC(=O)[C@H](Cc1ccc(O)cc1)NC(=O)[C@H](CO)NC(=O)[C@H](CO)NC(=O)[C@@H](NC(=O)[C@H](CC(=O)O)NC(=O)[C@H](CO)NC(=O)[C@@H](NC(=O)[C@H](Cc1ccccc1)NC(=O)[C@@H](NC(=O)CNC(=O)[C@H](CCC(=O)O)NC(=O)[C@H](C)NC(=O)[C@@H](N)Cc1c[nH]cn1)[C@@H](C)O)[C@@H](C)O)C(C)C)C(=O)N[C@@H](C)C(=O)N[C@@H](Cc1c[nH]c2ccccc12)C(=O)N[C@@H](CC(C)C)C(=O)N[C@H](C(=O)N[C@@H](CCCCN)C(=O)NCC(=O)N[C@@H](CCCNC(=N)N)C(N)=O)C(C)C [GLP-1, GLP-1 (7-36) amide]
Effect of hyperglycemia on the β-cell secretory response to GLP-1 (healthy subjects): increased almost four-fold
Mean peak C-peptide response after s.c. GLP-1 compared with glucose+GLP-1 I.V. [1]: barely significant
Mean peak insulin response after s.c. GLP-1 compared with glucose+GLP-1 I.V. [1]: not significantly different
Mean peak insulin and C-peptide responses after s.c. GLP-1 compared with glucose+GLP-1 I.V. (s.c. 1.5 nmol GLP-1/kg at glucose 15 mmol/l, type II diabetic patients): no significant differences
Effect of hyperglycemia on the β-cell secretory response to GLP-1 (type II diabetic patients): only a minor increase
